Some of these results come from one statement about several compounds together.
Target: T1, MRSA MurA^WT (Staphylococcus aureus, UniProt Q5HEA0)
T1 sequence (Q5HEA0 1-421): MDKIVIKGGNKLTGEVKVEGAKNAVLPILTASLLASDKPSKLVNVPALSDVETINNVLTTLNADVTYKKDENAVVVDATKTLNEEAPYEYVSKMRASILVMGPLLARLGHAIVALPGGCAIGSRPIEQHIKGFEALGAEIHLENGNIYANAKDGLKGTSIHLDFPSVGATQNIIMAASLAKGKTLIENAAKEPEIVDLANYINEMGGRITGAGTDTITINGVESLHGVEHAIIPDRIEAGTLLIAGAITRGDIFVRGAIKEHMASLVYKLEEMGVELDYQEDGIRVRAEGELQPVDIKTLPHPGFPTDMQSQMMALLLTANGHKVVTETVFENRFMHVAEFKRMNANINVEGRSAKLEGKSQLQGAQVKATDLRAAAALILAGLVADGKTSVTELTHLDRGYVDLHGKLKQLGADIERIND
Experiment: MuraA assay (malachite green)
Assay type: biochemical, methicillin-resistant Staphylococcus aureus (MRSA)
Settings: read-out: IC50, MurA activities of wild type MRSA and MRSA^C119D mutant strain; text range over both MRSA MurA enzymes and both compounds
Experimental: In a standardized assay, MuraA enzymes were pre-incubated with the substrate UNAG and an inhibitor for 10 min at 37° C. To determine the influence of UNAG on the binding process, experiments were performed in the absence of UNAG during pre-incubation period. The reaction was initiated by the addition of the second substrate PEP, resulting in a total volume of […] with the following concentrations: E. Coli MurA or MRSA MurA 25 nM, UNAG 310 μM, PEP 620 μM, 50 mM HEPES, pH 7.6, DMSO 1% (v/v). The reaction was stopped after 60 min at 37° C. by adding 100 μL of Lanzetta reagent containing malachite green solution (0.045% (w/v)) and ammonium heptamolybdate (8.4% (v/v)) at a ratio of 3:1 and with 0.03% (w/v) Tergitol NP-40 as dye-stabilizing detergent. After 10 min, the absorbance at 620 nm was measured using a FlexStation 3 Microplate Reader (Molecular Devices). Finally, dose-response curves were generated by measuring the enzyme activity of five replicates at least 8 different compound concentrations. The resulting data were plotted and IC50 values indicating the concentration of the compound with a residual activity of 50% were determined. […]

Structure (SMILES) | IC50 [µM]
C=C1C(=O)O[C@H]2C(=O)O[C@H](CCCCCCCC)[C@@H]12 [Compound 10d] | 0.9 to 21.5
C=C(C(=O)OC)[C@@H]1[C@@H](CCCCCCCC)OC(=O)[C@@H]1O [Compound 13d] | 0.9 to 21.5

From patent US20160297829A1, “METHOD FOR PRODUCING AVENACIOLIDES AND USES THEREOF” (Academia Sinica, priority 2015, published 2016)
